# Laboratory results taken from paper PMC9115922.
# Protein sequences, listed by entry. Tags and fused reporters are not part of them. Lines headed by an entry give the natural chain unless they say otherwise; changes in a name come on top. Chains listed by the source or under a name are the forms on record and can include a tag or linker.
# UniProt Q15078: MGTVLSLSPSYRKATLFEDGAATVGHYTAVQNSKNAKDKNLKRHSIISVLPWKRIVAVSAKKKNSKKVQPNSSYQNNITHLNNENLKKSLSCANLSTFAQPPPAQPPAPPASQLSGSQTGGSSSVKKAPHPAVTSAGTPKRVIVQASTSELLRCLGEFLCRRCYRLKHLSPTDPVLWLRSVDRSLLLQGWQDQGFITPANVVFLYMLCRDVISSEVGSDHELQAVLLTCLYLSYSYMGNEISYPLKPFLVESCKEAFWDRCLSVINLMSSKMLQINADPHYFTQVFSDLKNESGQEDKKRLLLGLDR
# UniProt Q9UQF2: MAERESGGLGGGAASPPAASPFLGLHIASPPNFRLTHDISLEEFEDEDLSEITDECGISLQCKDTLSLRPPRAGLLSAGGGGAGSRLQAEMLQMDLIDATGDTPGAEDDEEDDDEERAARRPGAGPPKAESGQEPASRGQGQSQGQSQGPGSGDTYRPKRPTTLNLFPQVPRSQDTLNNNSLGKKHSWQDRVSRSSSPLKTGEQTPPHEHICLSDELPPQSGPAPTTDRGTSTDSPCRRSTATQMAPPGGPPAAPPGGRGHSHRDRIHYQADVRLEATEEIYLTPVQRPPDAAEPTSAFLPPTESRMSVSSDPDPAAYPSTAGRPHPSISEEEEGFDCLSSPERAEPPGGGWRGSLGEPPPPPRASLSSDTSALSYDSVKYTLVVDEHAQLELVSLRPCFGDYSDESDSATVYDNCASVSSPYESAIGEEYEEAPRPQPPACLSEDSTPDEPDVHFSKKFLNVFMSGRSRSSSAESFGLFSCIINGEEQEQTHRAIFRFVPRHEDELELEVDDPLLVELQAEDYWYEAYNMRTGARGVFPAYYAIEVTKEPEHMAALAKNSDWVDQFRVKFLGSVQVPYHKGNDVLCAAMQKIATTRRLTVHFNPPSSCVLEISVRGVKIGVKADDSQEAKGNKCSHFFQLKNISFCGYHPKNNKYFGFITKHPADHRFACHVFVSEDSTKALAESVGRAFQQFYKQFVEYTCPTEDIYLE
# UniProt Q8C863: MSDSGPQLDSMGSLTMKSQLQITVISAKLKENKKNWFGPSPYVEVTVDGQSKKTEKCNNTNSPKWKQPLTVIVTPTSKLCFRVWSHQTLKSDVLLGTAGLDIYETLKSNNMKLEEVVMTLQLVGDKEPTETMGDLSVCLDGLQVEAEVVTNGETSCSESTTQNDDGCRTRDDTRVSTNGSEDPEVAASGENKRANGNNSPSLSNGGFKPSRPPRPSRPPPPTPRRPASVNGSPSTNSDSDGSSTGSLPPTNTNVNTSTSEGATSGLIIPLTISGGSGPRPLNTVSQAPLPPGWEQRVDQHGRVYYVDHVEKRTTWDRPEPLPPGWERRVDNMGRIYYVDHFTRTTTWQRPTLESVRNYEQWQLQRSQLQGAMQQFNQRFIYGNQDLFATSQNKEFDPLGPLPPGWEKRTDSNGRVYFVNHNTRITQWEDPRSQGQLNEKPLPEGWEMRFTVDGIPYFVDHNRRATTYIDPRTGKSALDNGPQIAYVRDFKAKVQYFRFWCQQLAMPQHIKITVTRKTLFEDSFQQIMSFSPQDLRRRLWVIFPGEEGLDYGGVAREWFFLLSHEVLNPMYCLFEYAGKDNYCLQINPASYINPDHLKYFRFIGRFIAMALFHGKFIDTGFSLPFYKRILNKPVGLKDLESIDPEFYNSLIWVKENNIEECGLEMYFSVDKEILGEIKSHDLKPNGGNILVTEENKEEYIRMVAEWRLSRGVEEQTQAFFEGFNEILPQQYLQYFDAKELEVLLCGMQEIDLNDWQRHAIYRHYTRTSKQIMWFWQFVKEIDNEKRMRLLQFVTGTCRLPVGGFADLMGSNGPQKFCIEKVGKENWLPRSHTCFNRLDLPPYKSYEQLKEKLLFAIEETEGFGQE
# UniProt P61809: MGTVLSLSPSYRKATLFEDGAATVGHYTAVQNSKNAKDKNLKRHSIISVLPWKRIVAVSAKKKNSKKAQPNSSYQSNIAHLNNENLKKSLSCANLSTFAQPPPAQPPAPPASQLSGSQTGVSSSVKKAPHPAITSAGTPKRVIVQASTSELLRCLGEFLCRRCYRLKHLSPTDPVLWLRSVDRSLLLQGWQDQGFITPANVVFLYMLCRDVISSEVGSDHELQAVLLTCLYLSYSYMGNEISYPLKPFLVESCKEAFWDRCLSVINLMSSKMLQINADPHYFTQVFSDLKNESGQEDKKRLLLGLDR
# Recombinant Human ITCH/AIP4 isoform 2 protein (Q96J02-2, form named): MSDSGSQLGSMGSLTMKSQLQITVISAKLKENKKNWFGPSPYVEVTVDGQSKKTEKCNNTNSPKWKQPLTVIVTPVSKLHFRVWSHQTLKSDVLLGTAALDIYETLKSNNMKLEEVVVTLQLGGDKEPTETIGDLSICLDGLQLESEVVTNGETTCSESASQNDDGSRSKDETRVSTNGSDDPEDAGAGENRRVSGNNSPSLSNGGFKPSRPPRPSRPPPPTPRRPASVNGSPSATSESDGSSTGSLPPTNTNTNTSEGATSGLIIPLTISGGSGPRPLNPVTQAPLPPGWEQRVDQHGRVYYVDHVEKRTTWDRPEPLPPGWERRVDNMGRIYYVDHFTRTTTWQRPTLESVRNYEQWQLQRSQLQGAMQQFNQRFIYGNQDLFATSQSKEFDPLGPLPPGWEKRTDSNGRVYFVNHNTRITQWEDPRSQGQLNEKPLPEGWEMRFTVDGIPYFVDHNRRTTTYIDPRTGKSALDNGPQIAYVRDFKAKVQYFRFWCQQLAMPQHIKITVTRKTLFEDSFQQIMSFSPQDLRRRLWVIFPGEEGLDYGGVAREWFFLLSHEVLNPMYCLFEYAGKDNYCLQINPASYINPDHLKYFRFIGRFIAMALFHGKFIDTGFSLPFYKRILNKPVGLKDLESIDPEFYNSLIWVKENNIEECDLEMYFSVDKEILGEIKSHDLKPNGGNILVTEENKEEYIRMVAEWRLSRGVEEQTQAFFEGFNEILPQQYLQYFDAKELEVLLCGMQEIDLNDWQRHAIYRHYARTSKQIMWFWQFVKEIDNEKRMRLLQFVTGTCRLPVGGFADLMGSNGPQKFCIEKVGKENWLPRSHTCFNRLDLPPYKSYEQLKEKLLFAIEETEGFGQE
# No constants are given. Whether binding was seen depends on the method and setting. For part of these data: Binding seen in cells or lysates may run through a third protein. Some binding calls cover weakened binding; strength is not graded here.
# T1: JIP1, endogenous mouse (mouse (endogenous in embryonic brain and cortical neurons)) (UniProt Q9WVI9)
# T1 sequence: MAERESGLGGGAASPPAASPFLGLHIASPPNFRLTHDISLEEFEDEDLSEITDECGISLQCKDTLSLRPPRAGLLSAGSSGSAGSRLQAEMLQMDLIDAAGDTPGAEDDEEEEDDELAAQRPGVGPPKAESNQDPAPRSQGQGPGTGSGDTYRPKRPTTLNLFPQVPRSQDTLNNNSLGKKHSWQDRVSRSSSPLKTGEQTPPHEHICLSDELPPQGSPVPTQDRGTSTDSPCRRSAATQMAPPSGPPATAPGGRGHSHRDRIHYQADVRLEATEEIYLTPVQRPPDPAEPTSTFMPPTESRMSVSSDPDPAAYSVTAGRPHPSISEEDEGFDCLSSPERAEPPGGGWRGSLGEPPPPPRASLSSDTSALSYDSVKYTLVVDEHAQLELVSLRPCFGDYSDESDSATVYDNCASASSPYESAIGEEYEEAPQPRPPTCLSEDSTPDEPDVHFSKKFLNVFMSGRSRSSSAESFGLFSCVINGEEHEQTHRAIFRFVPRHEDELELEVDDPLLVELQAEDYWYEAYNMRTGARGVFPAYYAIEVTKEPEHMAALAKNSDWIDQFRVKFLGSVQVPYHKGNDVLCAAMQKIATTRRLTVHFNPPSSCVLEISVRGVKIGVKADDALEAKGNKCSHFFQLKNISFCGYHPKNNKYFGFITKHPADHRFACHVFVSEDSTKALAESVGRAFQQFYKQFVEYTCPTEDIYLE
# B1: JIP1, endogenous mouse (protein, UniProt Q9WVI9 1-707)
# chain: T1 sequence
# Columns and labels:
# GST fused-p35 = GST fused-p35 (UniProt Q15078); assay: pull-down; GST or GST-p35 incubated with 1 μg Itch or/and 1 μg His-JIP1 at 4 °C for 2 h; retrieved with GSH beads; blot with Itch and JIP1 antibody; both purified
# [1] = target: T1, JIP1, endogenous mouse (mouse (endogenous in embryonic brain and cortical neurons)); assay: co-IP; 500 μg mouse brain lysate (E15-16); IP with 1 μg JIP1 antibody or IgG control; blot with anti-p35
# [2] = target: GST fused with JIP1 (c-Jun N-terminal kinase (JNK)-interacting protein 1) (human) (UniProt Q9UQF2); assay: pull-down; 1 μg GST or GST-JIP1 incubated with 2 μg His-p35 at 4 °C for 2 h; retrieved with GSH-Sepharose; western blot with anti-p35; both purified
# [3] = target: Itch, endogenous mouse (mouse (endogenous in embryonic cortex)) (UniProt Q8C863); assay: co-IP; CD-1 embryonic cortex lysate (E15.5-16.5); IP with Itch antibody; blot with JIP1 antibody
# [4] = target: p35, endogenous mouse (mouse (endogenous in embryonic brain and cortical neurons)) (UniProt P61809); assay: co-IP; lysates of cultured cortical neurons of p35 or JIP1 WT and KO mice; IP with anti-p35 or control IgG; blot with anti-JIP1
molecule,measurement,setting,value
Recombinant Human ITCH/AIP4 isoform 2 protein (from UniProt Q96J02-2 1-862) (enzyme),binding,GST fused-p35,binds
His-JIP1 (from UniProt Q9UQF2 1-711),binding,GST fused-p35,binds
"p35, endogenous mouse (from UniProt P61809 1-307)",binding,[1],binds
His-tagged p35 (from UniProt Q15078 1-307),binding,[2],binds
B1,binding,[3],binds
same,binding,[4],binds
